Results on one molecule are retold here after patent US20240343760A1, “PEPTIDES FOR CELL-TYPE SPECIFIC TARGETING OF THE RETINA” (Oregon State University, priority 2021, published 2024).

For the assay, the target named is streptavidin (UniProt P22629). Kind of assay: phage display biopanning of the Ph.D.-7 M13 library against streptavidin, three rounds, Sanger sequencing of clones.

No constants are given. Whether binding was seen depends on the method and setting. Some binding calls cover weakened binding; strength is not graded here.

For the molecule NLLSHPQ [NLLSHPQ (SEQ ID No. 51), heptamer peptide displayed on M13 bacteriophage (Ph.D.-7 library clone)], the binding result was “binds”.
